Among the data in PubChem BioAssay AID2685 (National Center for Advancing Translational Sciences (NCATS), 2010) are cell number change and AC50 values, retold here.

A short description of this experiment: qHTS Assay for Lipid Storage Modulators in Drosophila S3 Cells.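 For cell number change: cells counted by Cell Tracker Red CMTPX staining in the red channel.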 The note with it: BODIPY lipid droplet fluorescence, 18-24 h; for cell number change: measured here: cell count max response, cells fed with added oleic acid. In outline: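 Drosophila S3 cells got compounds at several concentrations plus oleic acid (400 uM solution). Laser-scanning cytometry with 488 nm excitation read lipid droplets at 500-530 nm and cells at 575-640 nm. Percent activity was relative to 20 uM Triacsin C.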

The mark [1] stands for this setting: measured here: lipid fluorescence (Fed channel) AC50, cells fed with added oleic acid.
Where [2] appears, read: measured here: cell number channel AC50, cells fed with added oleic acid.

Structures are written as SMILES. This is one part of the list. Shown are side measurements of this screen, not its main read-out; they come without a call. The list favours compounds with an active or inconclusive main result. Words in brackets tell the shape of the fitted curve; partial curves, single points and poor fits give uncertain potencies.

Regarding `Cc1ccc(-c2nc3s/c(=C\c4ccco4)c(=O)n3n2)cc1`, the cell number change was -11.1%. Under setting [1], the concentration at half-maximal activity (AC50) is 0.731 µM [falling, full curve, poor fit].
On to `CCS(=O)(=O)c1nc(S(=O)(=O)c2ccc(C)cc2)c(N2CCC(C)CC2)s1`, for which the cell number change was -20.3%.
On to `CCOC(=O)c1c(NC(=O)CCS(=O)(=O)c2ccccc2)sc2c1CCN(C(C)C)C2`, for which the cell number change was -13.8%. Moreover, the concentration at half-maximal activity (AC50) under setting [1] is 16.4 µM [falling, single point].
For `CCN1C(=O)/C(=C2/Sc3ccccc3N2CC)S/C1=N\c1ncn[nH]1`, the cell number change is -34%. Further, the AC50 under setting [2] was 23.1 µM [falling, single point]. Under setting [1], the AC50 is 23.1 µM [falling, single point].
Turning to `CCCC(c1nnnn1C1CCCCC1)N1CCN(C(=O)c2ccco2)CC1` (stereo unspecified), the cell number change came out at 5%.
Consider `CCCC(=O)Nc1nc(-c2ccc3c(c2)OCCO3)cs1`, for which the cell number change is 62.9%. Also, the AC50 under setting [2] is 11.6 µM [rising, partial curve]. In addition, the AC50 under setting [1] was 6.51 µM [rising, single point].
As to `COc1cccc(OC)c1C(=O)Nc1ccc2c(c1)n(C)c(=O)n2C`, the cell number change is -9.67%. Also, the half-maximal activity concentration (AC50) under setting [1] was 29.1 µM [rising, single point].
As to `COc1cc2c(cc1OC)C(=O)CCS2`, the cell number change came out at 10.9%. Also, the AC50 under setting [2] is 0.82 µM [falling, full curve, poor fit]. Moreover, the AC50 under setting [1] was 6.51 µM [falling, single point].
Consider `Cc1cc(F)ccc1NC(=O)c1cc(S(=O)(=O)N2CCCC2)cn1C`, for which the cell number change came to 3.17%. The AC50 under setting [1] is 4.61 µM [rising, single point].
Consider `Cc1cccc(-n2[nH]c(C)c(C=Nc3ccc4[nH]c(=O)[nH]c4c3)c2=O)c1`, for which the cell number change is -11.7%. In addition, the AC50 under setting [1] was 29.1 µM [falling, single point].
`COc1cc(NC(=O)CN2CCN(CC(=O)Nc3ccccc3OC)CC2)cc(OC)c1`: the cell number change stood at 15.5%.
Regarding `COC(=O)Nc1ccc(S(=O)(=O)N2CCCC(C(=O)NC3CCS(=O)(=O)C3)C2)cc1` (stereo unspecified), the cell number change worked out at 20.4%. Under setting [1], the AC50 was 23.1 µM [rising, single point].
Regarding `COc1ccc(C2=NN(C(=O)CSc3nc(=O)n4cc(C)ccc4n3)C(c3ccc(C)cc3)C2)cc1` (stereo unspecified), the cell number change was 60.8%. Moreover, the concentration at half-maximal activity (AC50) under setting [2] is 4.11 µM [rising, partial curve]. Also, the AC50 under setting [1] was 3.26 µM [rising, partial curve].
On to `CC(CCc1ccccc1)OS(N)(=O)=O` (stereo unspecified), for which the cell number change amounted to 37.2%. Besides, under setting [2], the concentration at half-maximal activity (AC50) is 11.6 µM [rising, partial curve, poor fit].
With `Cn1nc(-c2ccc(C(=O)NC3CCCCC3)cc2)c2ccccc2c1=O`, the cell number change is -14.5%. Also, under setting [1], the concentration at half-maximal activity (AC50) was 35.5 µM [falling, single point].
In the case of `Cc1cccc(C(=O)NCCc2ccc(S(N)(=O)=O)cc2)c1[N+](=O)[O-]`, the cell number change was -2.43%. Besides, the concentration at half-maximal activity (AC50) under setting [1] was 3.26 µM [rising, single point].
Consider `OCCCNc1nnc(-c2ccccc2)c2ccccc12`, for which the cell number change was 49.9%. Also, the AC50 under setting [2] was 29.1 µM [rising, single point]. Further, under setting [1], the concentration at half-maximal activity (AC50) was 32.6 µM [rising, partial curve].
`COc1ccccc1C(=O)COC(=O)C1CCN(S(=O)(=O)c2ccc(C)c(C)c2)CC1`: the cell number change was -7%.
Turning to `O=c1cc(-c2ccccc2)nc2nc(SCc3ccccc3)[nH]n12`, the cell number change worked out at 34.3%. Moreover, under setting [2], the half-maximal activity concentration (AC50) is 18.4 µM [rising, single point].
In the case of `CCc1ccc(NC(=O)CC2NCCNC2=O)cc1` (stereo unspecified), the cell number change was -46%. Also, the concentration at half-maximal activity (AC50) under setting [2] was 29.1 µM [falling, single point]. Besides, the AC50 under setting [1] is 0.731 µM [falling, full curve].
`C[C@H](NC(=O)[C@@H]1Cc2ccccc2CN1)C(=O)NC[C@H]1CC[C@H](C(=O)O)CC1`: the cell number change was -15.7%. Also, the AC50 under setting [1] was 23.1 µM [falling, single point].
In the case of `CCOc1ccc(NC(C)C(=O)N/N=C/c2cccs2)cc1` (stereo unspecified), the cell number change is 10.4%. The concentration at half-maximal activity (AC50) under setting [1] was 1.03 µM [rising, full curve, poor fit].
Take `Cc1ccccc1-n1c(SCC(=O)c2c(N)n(C)c(=O)n(C)c2=O)nc2sc3c(c2c1=O)CCCC3`: the cell number change worked out at 7.15%. For the same compound, the concentration at half-maximal activity (AC50) under setting [1] was 0.58 µM [rising, full curve].
In the case of `CC(C)=C(NC(=O)c1ccccc1)C(=O)N1CCOCC1`, the cell number change was -33.9%. Also, under setting [2], the AC50 was 29.1 µM [falling, single point]. Moreover, the AC50 under setting [1] was 0.259 µM [falling, full curve].
With `COc1ccc(OCCSc2nnc(-c3ccoc3C)n2C)cc1`, the cell number change is -8.29%. The half-maximal activity concentration (AC50) under setting [1] is 0.651 µM [rising, full curve].
Consider `CCOc1ccc(NC(=O)c2ccccc2SC)cc1`, for which the cell number change was -28.3%. Also, the concentration at half-maximal activity (AC50) under setting [1] was 29.1 µM [falling, single point].
For `COCCCNC(=O)CCc1c(C)nc2c(-c3ccc(F)cc3)c(C)nn2c1C`, the cell number change came to 12.5%. The half-maximal activity concentration (AC50) under setting [2] was 2.06 µM [rising, single point].
On to `O=C1C(Cl)=C(N2CCCCC2)C(=O)N1c1ccccc1Cl`, for which the cell number change is -34.7%. Further, under setting [2], the AC50 is 0.184 µM [falling, full curve, poor fit]. Further, the AC50 under setting [1] was 16.4 µM [falling, partial curve].
Turning to `O=C(CCn1cnc2ccccc2c1=O)Nc1ccc(Cl)c(Cl)c1`, the cell number change is -91%. Moreover, the AC50 under setting [2] was 16.4 µM [falling, partial curve]. For the same compound, under setting [1], the AC50 was 23.1 µM [falling, single point].
Regarding `COc1ccc(C(=O)Nc2ccc3ccccc3c2)cc1`, the cell number change was 7.77%. Moreover, under setting [1], the AC50 was 29.1 µM [falling, single point].
For `O=C(O)c1cc(-c2ccccc2)nc2nc(N3CCCCC3)sc12`, the cell number change is -24.6%. Also, the concentration at half-maximal activity (AC50) under setting [1] is 20.6 µM [falling, single point].
Consider `C/C(CC(C)C)=N/Nc1ccc([N+](=O)[O-])cc1[N+](=O)[O-]`, for which the cell number change is -47.3%. The AC50 under setting [2] was 20.6 µM [falling, single point]. Further, the AC50 under setting [1] is 29.1 µM [falling, single point].
As to `CCOC(=O)C1(Cc2cccc(OC)c2)CCCN(Cc2cc(OC)c(O)c(OC)c2)C1` (stereo unspecified), the cell number change stood at 16.5%.
On to `COc1ccc(C(=O)c2cc([N+](=O)[O-])ccc2N2CCOCC2)cc1`, for which the AC50 under setting [1] is 11.6 µM [rising, partial curve].
On to `CCCCn1c(N)c(N(CCC(C)C)C(=O)CSc2nnc(C)s2)c(=O)[nH]c1=O`, for which the cell number change is 1.34%.
With `CCCc1nc2ccccc2c(C(=O)N(CC)CC(=O)NCc2cccs2)c1CC`, the cell number change turned out to be 38.5%. Moreover, under setting [2], the AC50 was 8.2 µM [rising, partial curve].
For the compound `CCOc1ccc(Oc2ccc(C(F)(F)F)cc2N)cc1`, the cell number change is -31.2%. The AC50 under setting [2] is 16.4 µM [falling, single point]. For the same compound, the AC50 under setting [1] is 16.4 µM [falling, single point].
Take `COc1ccc(NC(=O)Nc2ccc(C(C)C)cc2)cc1`: the cell number change was found to be 16.3%. Also, the half-maximal activity concentration (AC50) under setting [1] is 1.3 µM [rising, full curve, poor fit].
Regarding `O=S(=O)(c1ccccc1)C1(C2CC(c3ccccc3)=NO2)CC(O)C1` (stereo unspecified), the cell number change was -6.59%.
On to `Cc1cc(C)c2cc(CN(Cc3ccco3)C(=O)NCc3ccccc3)c(=O)[nH]c2c1`, for which the half-maximal activity concentration (AC50) under setting [1] was 1.3 µM [rising, partial curve].
As for `O=C(O)CSc1nnc(-c2cccs2)n1-c1ccc(Cl)cc1`, the cell number change is -22.2%. Besides, the AC50 under setting [1] was 29.1 µM [falling, single point].
As to `Cc1cc(NC(=O)c2ccc(Cl)cc2)cc(C)c1OCC(=O)N1CCOCC1`, the cell number change was -9.86%. Under setting [1], the AC50 is 1.16 µM [falling, single point].
Take `Cc1ccc(-c2[nH]nc3c2C(c2ccoc2)C(C#N)=C(N)O3)cc1C` (stereo unspecified): the cell number change is -17.8%. Also, the half-maximal activity concentration (AC50) under setting [1] was 4.11 µM [rising, single point].
In the case of `Cc1ccc(NC(=O)CN(C)C(=O)C(C)N2CCN(Cc3ccccc3C)CC2)cc1` (stereo unspecified), the cell number change worked out at 11.5%. Further, the AC50 under setting [1] was 6.51 µM [rising, single point].
Take `CN(C(=O)CSc1nnc(NC2CCCCC2)s1)C1CCS(=O)(=O)C1` (stereo unspecified): the cell number change is -7.54%. Besides, the AC50 under setting [2] was 0.00651 µM [falling, full curve, poor fit].
As to `CC1(C(=O)O)CCC(C(=O)Nc2ccccc2)C1(C)C` (stereo unspecified), the cell number change was -25.2%. Moreover, the AC50 under setting [2] was 1.64 µM [falling, full curve, poor fit]. Besides, the half-maximal activity concentration (AC50) under setting [1] was 3.26 µM [falling, full curve].
For the compound `O=[N+]([O-])c1ccccc1/C=C/CN1CCCCC1`, the cell number change is -23.9%. Further, the half-maximal activity concentration (AC50) under setting [1] was 0.146 µM [falling, full curve, poor fit].
Take `O=C(CSc1n[nH]c(=O)n1-c1ccc2c(c1)OCCO2)Nc1ccccc1`: the cell number change was determined as 27.2%. In addition, the concentration at half-maximal activity (AC50) under setting [2] is 4.11 µM [rising, full curve, poor fit].
As to `O=C(O)/C=C/C(=O)N(Cc1ccc2c(c1)OCO2)C1CC(=O)N(CCc2ccccc2)C1=O` (stereo unspecified), the cell number change amounted to 4.05%. Moreover, under setting [1], the AC50 is 0.184 µM [falling, full curve, poor fit].
For `CC(C)OCCCNC(=O)CNC(=O)c1cccs1`, the cell number change was -10.8%. Further, the AC50 under setting [1] was 0.206 µM [falling, full curve].
Turning to `COCCOC(=O)C1=C(C)N(c2ccccc2)C(=S)NC1c1ccccc1C(F)(F)F` (stereo unspecified), the cell number change amounted to 46.6%. Moreover, the half-maximal activity concentration (AC50) under setting [2] is 5.17 µM [falling, single point]. For the same compound, under setting [1], the half-maximal activity concentration (AC50) is 0.146 µM [falling, full curve, poor fit].
As for `CC(NC(=O)C1CCCN(C(=O)N(C)C)C1)c1ccccc1` (stereo unspecified), the AC50 under setting [1] was 20.6 µM [falling, partial curve].
Take `COc1ccc(CN2CCNC(=O)C2CC(=O)NCCCC2CCCC2)c(F)c1` (stereo unspecified): the cell number change was found to be 24.1%. In addition, the AC50 under setting [1] was 2.06 µM [rising, partial curve].
Regarding `COc1ccc(CCN(C)S(=O)(=O)c2cn(C)c(=O)n(C)c2=O)cc1OC`, the cell number change is -10.3%. The AC50 under setting [1] is 0.0731 µM [falling, full curve, poor fit].
With `COc1ccc(NC(=O)CSc2nc(O)c(Cc3ccccc3)c(=O)[nH]2)cc1`, the cell number change was -43.9%. Besides, the AC50 under setting [2] is 29.1 µM [falling, single point]. Also, the AC50 under setting [1] is 29.1 µM [falling, single point].
`CC(NS(C)(=O)=O)C(c1cccs1)N1CCN(C)CC1` (stereo unspecified): the AC50 under setting [2] was 0.13 µM [falling, full curve, poor fit].
`COc1ccc(CN(CC(=O)NC2CCCC2)C(=O)c2ccc(-c3ccccc3)[nH]2)cc1`: the concentration at half-maximal activity (AC50) under setting [2] is 0.184 µM [falling, full curve, poor fit].
